No dose or concentration is given here for some results.
test system: Deroceras reticulatum; test: Bait palatability monitoring; assay type: in vivo; set-up: key: maximum palatability rating of +++; conditions: baits of Example 1; scale with maximum +++

Row | Structure (SMILES) | Bait Palatability
1 | O=[N+]([O-])C=C1NCCN1Cc1cc(Cl)no1 [Compound No. 1] | +++
2 | Cc1cc(CN2CCNC2=C[N+](=O)[O-])on1 [compound 3] | +++
3 | O=[N+]([O-])C=C1NCCN1Cc1cc(C(F)(F)F)no1 [compound 4] | +++

— patent publication EP0617893B1, “Molluscicides” (SHELL INTE[…] […] B.V., priority 1993, dated 1994)
